The values below come from patent US20230390401A1, “RAPIDLY RELEASED BIOORTHOGONAL CAGING GROUPS” (University of Utah Research Foundation, priority 2018, published 2023).

A short description of data set [1]: Prodrug release by DPTz assessed by HPLC. Particulars: prodrug c=1 mM, DPTz c=2 mM, PBS:DMSO (1:1), T=37° C., t=4 h; 2 mM GSH with exception of ICPr-SN-38.
Data set [2] is described as follows: Tetrazine-mediated ICPr/ICPrc unmasking monitored by UV-Vis absorbance and fluorescence. Particulars: reaction with DPTz; for unmasking yield based on the absorbance intensity of the product: c(probe)=1 mM, c(Tz)=3 mM, PBS:DMSO (1:1), T=37° C.

`[C-]#[N+]CCCOC(=O)N1C2CN3C4=C(C(=O)C(N)=C(C)C4=O)C(COC(N)=O)C3(OC)C21` (stereo not shown) [ICPrc-mmC, N-(3-isocyanopropyl-1-carbamoyl)Mitomycin C]: the “drug release yield by HPLC” value in data set [1] was found to be 79±6%.

On to `[C-]#[N+]CCCOC(=O)Nc1ccc2c3c(cccc13)C(=O)N(CCOCCOCCOCCOC)C2=O` [ICPrc-NH-NA], for which, in data set [2], the “fluorescence turn-on signal on liberation of the 1,8-naphthalimide” value is 76 fold and the “unmasking yield based on the absorbance intensity of the product” value is recorded as 93.5±2.5%.

With `[C-]#[N+]CCCOc1ccc2c3c(cccc13)C(=O)N(CCOCCOCCOCCOC)C2=O` [ICPr-O-NA, N-(methyl-PEG4)-4-(3-isocyanopropyl-1-oxy)-1,8-naphthalimide], in data set [2], the “fluorescence turn-on signal on liberation of the 1,8-naphthalimide” value was found to be 1210 fold and the “unmasking yield based on the absorbance intensity of the product” value is given as 99.1±4.5%.

As to `[C-]#[N+]CCCOC(=O)NC1CC(OC2CC(O)(C(=O)CO)Cc3c(O)c4c(c(O)c32)C(=O)c2c(OC)cccc2C4=O)OC(C)C1O` (stereo not shown) [ICPrc-dox, N-(3-isocyanopropyl-1-carbamoyl)doxorubicin], the “drug release yield by HPLC” value in data set [1] was found to be 91±4%.

With `[C-]#[N+]CCCSc1ncnc2nc[nH]c12` [ICPr-mp, 6-(3-isocyanopropyl)mercaptopurine], the “drug release yield by HPLC” value in data set [1] came out at 94±3%.
